Assay results published in patent US20260265262A1, “CDK2 INHIBITORS AND METHODS OF USING THE SAME” (Cedilla Therapeutics, Inc., priority 2022, published 2026).
The match of structure and compound is tentative.

Experiments:
Kuramochi cells = assay: IncuCyte cell proliferation assay; format: cell-based; conditions: read-out: IncuCyte Kuramochi RB-WT: IC50; Kuramochi cells labeled with mApple-H2B, cell count 0 to 72 hours, 20 μM top concentration
Experimental: IncuCyte® assay was used to measure the effect of disclosed compounds on cell proliferation. Fluorescent microscopy images of cells were taken immediately after compound treatment and 72 hours later. Image analysis software was used to obtain cell counts as a function of compound concentration. Kuramochi cells labeled with mApple-H2B were seeded on 384-well assay-ready plates. Plates were placed in an IncuCyte® (Sartorius) and scanned at 0 and 72 hours. IncuCyte® software was used to count the number of fluorescent nuclei in each well. The fold change in cell count from 0 to 72 hours in wells treated with increasing compounds concentrations (10 pts, 1/2 log dilution, 20 μM top concentration) was normalized to DMSO control wells. The normalized cell counts were fit with dose response curves and a […] was calculated.

CDK2/Cyclin E1 = CDK2/Cyclin E1 (Homo sapiens, UniProt P24941); assay: ADP-Glo Luminescent Kinase Assay (CDK2/E1-37C); format: biochemical; conditions: read-out: ADPGLO (CDK2/E1-37C): IC50; 0.18 nM CDK2/Cyclin E1, 100 μM ATP, 1.5 μM Histone H1, 37° C., 60 min pre-incubation
Experimental: Inhibition of CDK2/Cyclin E1 activity by the presence of small molecules was evaluated using ADP-Glo Luminescent Kinase Assay (Promega). Activated CDK2/Cyclin E1 was incubated with its substrate Histone H1 (SignalChem H10-54N) in the kinase reaction buffer (100 μM ATP, 50 mM HEPES pH 7.5, 10 mM MgCl2, 1 mM EDTA, 2 mM DTT, 0.01% Brij35, 0.5 mg/mL BSA). Luminescence was recorded with an Envision plate reader (PerkinElmer).
Dose titrations of inhibitors in 100% DMSO were combined with 0.36 nM CDK2/Cyclin E1 in reaction buffer. The mixtures were incubated for 60 minutes at 37° C. before the addition of ATP and Histone H1 substrate to initiate the kinase reaction. The final conditions were 0.18 nM CDK2/Cyclin E1, 100 μM ATP, and 1.5 μM Histone H1. The reactions were incubated at 37° C. for 90 minutes before being stopped with the addition of ADP-Glo reagent. This mixture was incubated at room temperature for 60 minutes before Kinase Detection Solution is added to generate luminescence. The stopped reactions were analyzed on an Envision plate reader. The conversion ratios were normalized to yield % activity, plotted against compound concentration, and fit to a four-parameter equation to determine the IC50 for each compound.

| Compound | IC50 (Kuramochi cells) [µM] | IC50 (CDK2/Cyclin E1) [µM] |
| --- | --- | --- |
| COC(=O)c1ccccc1C1CCN(C(=O)[C@@H](NC(=O)[C@@H]2CN(C(=O)c3cnn(CC4CCN(C(=O)OC(C)(C)C)CC4)c3)CC23CN(C(=O)C2(C(F)(F)F)CC2)C3)[C@@H](C)OCC23CCC(CC2)OC3)CC1 | 5 to 20 | 0.5 to 5 |
| C[C@@H](OCC12CCC(CC1)OC2)[C@H](NC(=O)[C@@H]1CN(C(=O)c2cnn(Cc3ccc(C(F)(F)F)cc3)c2)CC12CN(C(=O)C1(C(F)(F)F)CC1)C2)C(=O)N1CCC(c2nnn[nH]2)CC1 [Example I-100] | > 20 | < 0.5 |
